Reference: paper PMC6175878, “ROS-induced R loops trigger a transcription-coupled but BRCA1/2-independent homologous recombination pathway through CSB” (Nature Communications, 2018)
For at least one entry, the source does not settle the construct or the ends of the probe. Results from cells or extracts need not show a direct contact. For part of these data: Weaker means in comparison with the reference protein, sequence or condition of that experiment.

The chains behind the UniProt entries cited, without tags or fusion partners. Residues count along the entry.
UniProt Q03468, 1200-1493: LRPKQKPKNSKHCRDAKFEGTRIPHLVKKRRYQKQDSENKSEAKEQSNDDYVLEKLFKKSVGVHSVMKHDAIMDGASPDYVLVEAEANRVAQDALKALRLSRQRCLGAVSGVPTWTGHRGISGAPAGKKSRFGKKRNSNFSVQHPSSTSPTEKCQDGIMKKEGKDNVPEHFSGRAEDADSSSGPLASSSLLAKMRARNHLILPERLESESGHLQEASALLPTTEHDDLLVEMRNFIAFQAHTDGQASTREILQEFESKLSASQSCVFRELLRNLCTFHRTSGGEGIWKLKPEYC
UniProt Q03468, 337-509: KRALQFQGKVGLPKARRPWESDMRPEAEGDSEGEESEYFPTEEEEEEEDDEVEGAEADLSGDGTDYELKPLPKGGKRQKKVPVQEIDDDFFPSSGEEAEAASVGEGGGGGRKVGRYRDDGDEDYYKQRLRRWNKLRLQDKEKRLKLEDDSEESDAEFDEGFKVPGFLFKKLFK
UniProt Q03468, 961-1493: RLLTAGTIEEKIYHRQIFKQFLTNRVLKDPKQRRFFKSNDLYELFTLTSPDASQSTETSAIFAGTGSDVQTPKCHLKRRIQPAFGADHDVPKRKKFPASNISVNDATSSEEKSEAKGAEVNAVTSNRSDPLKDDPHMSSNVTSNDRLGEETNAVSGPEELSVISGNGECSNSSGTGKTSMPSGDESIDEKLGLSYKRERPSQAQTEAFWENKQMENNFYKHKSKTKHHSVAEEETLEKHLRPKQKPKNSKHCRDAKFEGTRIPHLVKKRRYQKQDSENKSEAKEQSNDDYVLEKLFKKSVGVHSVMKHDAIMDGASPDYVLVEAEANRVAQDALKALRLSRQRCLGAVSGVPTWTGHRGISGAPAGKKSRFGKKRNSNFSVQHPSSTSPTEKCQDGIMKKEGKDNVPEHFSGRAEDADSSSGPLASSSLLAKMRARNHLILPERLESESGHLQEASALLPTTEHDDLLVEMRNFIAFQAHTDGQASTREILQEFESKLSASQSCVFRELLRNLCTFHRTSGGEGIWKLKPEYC

Assays:
Experiment in all cases: pull-down
[1] = target: GFP-CSB 1200-1493 (human) (UniProt Q03468); conditions: cell lysate; pull-down: 20 mM Tris-HCl pH 7.5, 50 mM NaCl, 2 mM MgCl2, 0.1% Tween-20, 30% glycerol; protein in a lysate after overexpression; residues …; protein details: EGFP (N-term, pEGFP-C1); label: 3' biotin on oligo 3 (RNA); DNA:RNA hybrid
[2] = target: GFP-CSB 337-509 (CSB-AD) (human) (UniProt Q03468); conditions: cell lysate, captured less efficiently than C-terminal fragments, possibly indirect; pull-down: 20 mM Tris-HCl pH 7.5, 50 mM NaCl, 2 mM MgCl2, 0.1% Tween-20, 30% glycerol; protein in a lysate after overexpression; residues 337-509; protein details: EGFP (N-term, pEGFP-C1); label: 3' biotin on oligo 3 (RNA); DNA:RNA hybrid
GFP-CSB 961-1493 (human) = GFP-CSB 961-1493 (human) (UniProt Q03468); conditions: cell lysate; pull-down: 20 mM Tris-HCl pH 7.5, 50 mM NaCl, 2 mM MgCl2, 0.1% Tween-20, 30% glycerol; protein in a lysate after overexpression; residues 961-1493; protein details: EGFP (N-term, pEGFP-C1); label: 3' biotin on oligo 3 (RNA); DNA:RNA hybrid

“UGACUAAUCGAAGUUGAUACAUCGACGUUA / TAACGTCGATGTATCAACTTCGATTAGTCA [biotin DNA:RNA hybrid oligo 3/oligo 4]”: binds [1]; binds more weakly [2]; binds (GFP-CSB 961-1493 (human)).
